According to paper PMC6423145:
No constants are given. Whether binding was seen depends on the method and setting. In cells and extracts the contact can be indirect. Some results given as binding are weak or reduced against the parent protein; the word gives no strength.

Chains of the proteins cited; added tags and fusions are not shown. Lines headed by an entry give the natural chain unless they say otherwise; changes in a name come on top.
UniProt Q9UHP3: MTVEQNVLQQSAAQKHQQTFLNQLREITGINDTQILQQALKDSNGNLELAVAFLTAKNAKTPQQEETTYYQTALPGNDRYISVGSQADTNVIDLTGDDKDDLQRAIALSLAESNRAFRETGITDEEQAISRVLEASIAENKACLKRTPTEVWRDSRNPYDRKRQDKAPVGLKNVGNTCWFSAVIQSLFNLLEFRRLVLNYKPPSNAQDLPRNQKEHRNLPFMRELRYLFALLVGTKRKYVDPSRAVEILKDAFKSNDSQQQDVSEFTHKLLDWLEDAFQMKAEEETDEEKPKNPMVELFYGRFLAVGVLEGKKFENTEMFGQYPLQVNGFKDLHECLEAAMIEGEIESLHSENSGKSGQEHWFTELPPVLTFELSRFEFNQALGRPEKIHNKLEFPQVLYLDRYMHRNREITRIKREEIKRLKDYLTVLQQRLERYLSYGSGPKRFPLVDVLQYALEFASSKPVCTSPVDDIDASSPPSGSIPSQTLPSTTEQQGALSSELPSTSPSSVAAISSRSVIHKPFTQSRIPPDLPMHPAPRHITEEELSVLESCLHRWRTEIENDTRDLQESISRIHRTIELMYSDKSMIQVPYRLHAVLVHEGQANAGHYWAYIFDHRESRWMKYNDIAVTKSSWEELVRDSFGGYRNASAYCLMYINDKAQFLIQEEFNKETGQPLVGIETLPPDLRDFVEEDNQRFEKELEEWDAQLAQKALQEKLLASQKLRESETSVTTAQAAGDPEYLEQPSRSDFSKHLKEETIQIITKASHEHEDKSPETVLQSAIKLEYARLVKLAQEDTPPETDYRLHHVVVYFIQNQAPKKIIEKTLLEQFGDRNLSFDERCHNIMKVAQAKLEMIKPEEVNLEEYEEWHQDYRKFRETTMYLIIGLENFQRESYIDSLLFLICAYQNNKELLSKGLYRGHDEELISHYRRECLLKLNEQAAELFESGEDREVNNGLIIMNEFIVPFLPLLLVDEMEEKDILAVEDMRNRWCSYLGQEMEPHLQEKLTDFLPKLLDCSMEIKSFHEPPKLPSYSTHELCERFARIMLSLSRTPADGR

What was measured:
GST-USP25 = GST-USP25 (UniProt Q9UHP3); experiment: pull-down; 10 μg of each GST fusion immobilised on Sepharose beads, incubated with 3T3-L1 adipocyte lysate (4 mg total protein in 400 μl); TNKS detected by immunoblot; only the target purified
GST-USP25-R1049A = GST-USP25-R1049A (UniProt Q9UHP3); experiment: as above

B1: tankyrase (TNKS), endogenous in 3T3-L1 adipocytes (protein, UniProt Q6PFX9 1-1320)
chain: MAASRRSQHHHHHHQQQLQPAPGASAPPPPPPPPLSPGLAPGPTPASPTAGGLAPFASPRHGLALPEGDGSRDPPDRPRSPDPVDGAVCTVAAPAAVPAASAAVGVAPTPAGGGGGGGNNSASSASSPTSSSSSSPSSPGSSLAESPEAAGVGSTATLGAGAAGLGPGVPAVSGALRELLEACRNGDVSRVKRLVDAANVNAKDMAGRKSSPLHFAAGFGRKDVVEHLLQMGANVHARDDGGLIPLHNACSFGHAEVVSLLLCQGADPNARDNWNYTPLHEAAIKGKIDVCIVLLQHGADPNIRNTDGKSALDLADPSAKAVLTGEYKKDELLEAARSGNEEKLMALLTPLNVNCHASDGRKSTPLHLAAGYNRVRIVQLLLQHGADVHAKDKGGLVPLHNACSYGHYEVTELLLKHGACVNAMDLWQFTPLHEAASKNRVEVCSLLLSHGADPTLVNCHGKSAVDMAPTPELRERLTYEFKGHSLLQAAREADLAKVKKTLALEIINFKQPQSHETALHCAVASLHPKRKQVAELLLRKGANVNEKNKDFMTPLHVAAERAHNDVMEVLHKHGAKMNALDSLGQTALHRAALAGHLQTCRLLLSYGSDPSIISLQGFTAAQMGNEAVQQILSESTPMRTSDVDYRLLEASKAGDLETVKQLCSPQNVNCRDLEGRHSTPLHFAAGYNRVSVVEYLLHHGADVHAKDKGGLVPLHNACSYGHYEVAELLVRHGASVNVADLWKFTPLHEAAAKGKYEICKLLLKHGADPTKKNRDGNTPLDLVKEGDTDIQDLLRGDAALLDAAKKGCLARVQKLCTPENINCRDTQGRNSTPLHLAAGYNNLEVAEYLLEHGADVNAQDKGGLIPLHNAASYGHVDIAALLIKYNTCVNATDKWAFTPLHEAAQKGRTQLCALLLAHGADPTMKNQEGQTPLDLATADDIRALLIDAMPPEALPTCFKPQATVVSASLISPASTPSCLSAASSIDNLTGPLTDLAVGGASNAGDGAAGAERKEGEVAGLDMNISQFLKSLGLEHLRDIFETEQITLDVLADMGHEELKEIGINAYGHRHKLIKGVERLLGGQQGTNPYLTFHCVNQGTILLDLAPEDKEYQSVEEEMQSTIREHRDGGNAGGIFNRYNVIRIQKVVNKKLRERFCHRQKEVSEENHNHHNERMLFHGSPFINAIIHKGFDERHAYIGGMFGAGIYFAENSSKSNQYVYGIGGGTGCPTHKDRSCYICHRQMLFCRVTLGKSFLQFSTMKMAHAPPGHHSVIGRPSVNGLAYAEYVIYRGEQAYPEYLITYQIMKPEAPSQTATAAEQKT
binding (GST-USP25): binds | binding (GST-USP25-R1049A): no binding
